Experimental data: PubChem BioAssay AID1159578 (Peter MacCallum Cancer Centre, 2015)
Assay: 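siRNA pools altering how lymphatic endothelial cells close a scratch wound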 (primary screen). System: human lymphatic endothelial cells. Reagent: siRNA pool against human genes, 40 nM. Duration: 48 h after transfection. Read-out: 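Cells stained with dye and imaged after a scratch; covered wound area and nuclei counted, duplicates averaged, migration set against mock wells and turned into a robust z-score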. Direction: migration robust z-score: higher = faster migration into the scratch; nuclei per well: higher = more cells in the well. Hit rule: 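Migration changed when robust z exceeds 2 or falls below -2 and mean nuclei number is at least 3300; otherwise not called changed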. Meaning of the calls: active = migration changed; inactive = no migration change, or too few cells.
Here is one part, drawn at random, of about 18,000 deposited reagents. About 1,030 of them (5.7%) were called active. 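Inactive calls also include pools with fewer than 3300 nuclei, whose migration was not assessed.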 Raw values vary from plate to plate and are shown uncorrected. Further read-outs or replicates are left out here.

| gene symbol | migration robust z-score | nuclei per well, duplicate mean | activity call |
| --- | --- | --- | --- |
| CLDN19 | -0.58 | 7528 | inactive |
| CEP120 | -0.67 | 6000 | inactive |
| HHAT | 0.78 | 4522 | inactive |
| POU6F1 | -0.83 | 4667 | inactive |
| ATIC | 1.17 | 5930 | inactive |
| FEZF2 | -2.26 | 4159 | active |
| ADAMTS9 | 0.73 | 5904 | inactive |
| NMB | -1.38 | 5912 | inactive |
| OR8G1 | -0.68 | 4058 | inactive |
| HSPA4L | 0.31 | 5944 | inactive |
| MS4A8 | -0.1 | 3655 | inactive |
| PPP1R10 | -0.99 | 5198 | inactive |
| DOCK7 | 0.02 | 6176 | inactive |
| EPYC | -0.86 | 6521 | inactive |
| MCRS1 | -1.12 | 3179 | inactive |
| HOXD3 | 0.35 | 5746 | inactive |
| SALL2 | -0.22 | 5258 | inactive |
| SOX2 | -0.57 | 6201 | inactive |
| POMK | -2.42 | 3739 | active |

Continued (2 carried over from the part before).
| gene symbol | migration robust z-score | nuclei per well, duplicate mean | activity call |
| --- | --- | --- | --- |
| SOX2 | -0.57 | 6201 | inactive |
| POMK | -2.42 | 3739 | active |
| PPP1R13B | -0.08 | 6043 | inactive |
| CPEB3 | -1.56 | 4254 | inactive |
| ZNF225 | 1.19 | 4806 | inactive |
| CORIN | 0.49 | 5513 | inactive |
| LONRF3 | 1.04 | 6950 | inactive |
| NEURL4 | -0.33 | 5966 | inactive |
| CAPN2 | -1.33 | 5442 | inactive |
| PNPLA7 | -0.62 | 6031 | inactive |
| TGM2 | 0.76 | 4174 | inactive |
| MAP3K9 | 0.94 | 5888 | inactive |
| PCDHB13 | -0.1 | 6267 | inactive |
| ZNF77 | 1.77 | 5954 | inactive |
| RARA | 0 | 4918 | inactive |
| TP53TG3 | -0.2 | 6541 | inactive |
| C9orf152 | -1.07 | 5647 | inactive |
| COX18 | -0.01 | 5154 | inactive |
| C22orf31 | 0.76 | 6406 | inactive |
| EFNA5 | -0.06 | 4867 | inactive |
| GTF3C6 | 0.72 | 5940 | inactive |
| STK16 | -0.57 | 5004 | inactive |
